No constants are given. Whether binding was seen depends on the method and setting. In cells and extracts the contact can be indirect. Some binding calls cover weakened binding; strength is not graded here. For some of these results: Sequences can lack the tags named with a protein.

Protein sequences, listed by entry. Tags and fused reporters are not part of them.
UniProt Q13620: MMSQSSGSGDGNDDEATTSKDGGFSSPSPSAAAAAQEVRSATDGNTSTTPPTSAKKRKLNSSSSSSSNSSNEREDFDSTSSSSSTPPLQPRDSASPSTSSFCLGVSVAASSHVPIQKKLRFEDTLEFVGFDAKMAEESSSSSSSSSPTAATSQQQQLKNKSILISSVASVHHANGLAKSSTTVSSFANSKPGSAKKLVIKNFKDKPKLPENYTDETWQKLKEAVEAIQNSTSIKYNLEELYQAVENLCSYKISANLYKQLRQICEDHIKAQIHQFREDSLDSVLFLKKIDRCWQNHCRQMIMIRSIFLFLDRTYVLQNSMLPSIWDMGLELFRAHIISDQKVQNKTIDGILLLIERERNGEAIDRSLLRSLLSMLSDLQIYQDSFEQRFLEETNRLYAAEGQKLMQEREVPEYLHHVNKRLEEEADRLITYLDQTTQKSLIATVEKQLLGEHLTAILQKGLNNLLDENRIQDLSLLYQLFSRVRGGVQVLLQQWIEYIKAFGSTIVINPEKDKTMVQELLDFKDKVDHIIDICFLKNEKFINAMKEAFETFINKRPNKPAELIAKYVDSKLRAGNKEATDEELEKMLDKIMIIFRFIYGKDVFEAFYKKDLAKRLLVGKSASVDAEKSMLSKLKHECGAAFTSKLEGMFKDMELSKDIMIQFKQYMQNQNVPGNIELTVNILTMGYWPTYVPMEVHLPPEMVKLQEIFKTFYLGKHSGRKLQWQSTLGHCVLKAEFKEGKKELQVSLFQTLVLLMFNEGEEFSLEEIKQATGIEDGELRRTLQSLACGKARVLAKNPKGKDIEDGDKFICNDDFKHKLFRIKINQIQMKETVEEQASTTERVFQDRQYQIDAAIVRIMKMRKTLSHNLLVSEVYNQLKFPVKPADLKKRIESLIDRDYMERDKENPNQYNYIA

Assay [1] concerns the target HA-tagged CUL4B, wild type (endogenously tagged) (human (endogenous in HeLa Kyoto)) (UniProt Q13620). The assay can be described thus: co-IP.
The target in assay [2] is Strep-tagged CUL4B (Sf9 co-expression) (human) (UniProt Q13620). The assay can be described thus: pull-down.

B1: WDR1 (endogenous) (protein, UniProt O75083 1-606)
chain: MPYEIKKVFASLPQVERGVSKIIGGDPKGNNFLYTNGKCVILRNIDNPALADIYTEHAHQVVVAKYAPSGFYIASGDVSGKLRIWDTTQKEHLLKYEYQPFAGKIKDIAWTEDSKRIAVVGEGREKFGAVFLWDSGSSVGEITGHNKVINSVDIKQSRPYRLATGSDDNCAAFFEGPPFKFKFTIGDHSRFVNCVRFSPDGNRFATASADGQIYIYDGKTGEKVCALGGSKAHDGGIYAISWSPDSTHLLSASGDKTSKIWDVSVNSVVSTFPMGSTVLDQQLGCLWQKDHLLSVSLSGYINYLDRNNPSKPLHVIKGHSKSIQCLTVHKNGGKSYIYSGSHDGHINYWDSETGENDSFAGKGHTNQVSRMTVDESGQLISCSMDDTVRYTSLMLRDYSGQGVVKLDVQPKCVAVGPGGYAVVVCIGQIVLLKDQRKCFSIDNPGYEPEVVAVHPGGDTVAIGGVDGNVRLYSILGTTLKDEGKLLEAKGPVTDVAYSHDGAFLAVCDASKVVTVFSVADGYSENNVFYGHHAKIVCLAWSPDNEHFASGGMDMMVYVWTLSDPETRVKIQDAHRLHHVSSLAWLDEHTLVTTSHDASVKEWTITY
B1: the binding entry in assay [1] is listed as “binds”.

B2: FLAG-tagged WDR1 (Sf9 co-expression) (protein, UniProt O75083 1-606)
chain: MPYEIKKVFASLPQVERGVSKIIGGDPKGNNFLYTNGKCVILRNIDNPALADIYTEHAHQVVVAKYAPSGFYIASGDVSGKLRIWDTTQKEHLLKYEYQPFAGKIKDIAWTEDSKRIAVVGEGREKFGAVFLWDSGSSVGEITGHNKVINSVDIKQSRPYRLATGSDDNCAAFFEGPPFKFKFTIGDHSRFVNCVRFSPDGNRFATASADGQIYIYDGKTGEKVCALGGSKAHDGGIYAISWSPDSTHLLSASGDKTSKIWDVSVNSVVSTFPMGSTVLDQQLGCLWQKDHLLSVSLSGYINYLDRNNPSKPLHVIKGHSKSIQCLTVHKNGGKSYIYSGSHDGHINYWDSETGENDSFAGKGHTNQVSRMTVDESGQLISCSMDDTVRYTSLMLRDYSGQGVVKLDVQPKCVAVGPGGYAVVVCIGQIVLLKDQRKCFSIDNPGYEPEVVAVHPGGDTVAIGGVDGNVRLYSILGTTLKDEGKLLEAKGPVTDVAYSHDGAFLAVCDASKVVTVFSVADGYSENNVFYGHHAKIVCLAWSPDNEHFASGGMDMMVYVWTLSDPETRVKIQDAHRLHHVSSLAWLDEHTLVTTSHDASVKEWTITY
For the molecule B2, in assay [2], the binding entry is reported as “binds”.

B3: LIS1 (endogenous) (protein, UniProt P43034 1-410)
chain: MVLSQRQRDELNRAIADYLRSNGYEEAYSVFKKEAELDVNEELDKKYAGLLEKKWTSVIRLQKKVMELESKLNEAKEEFTSGGPLGQKRDPKEWIPRPPEKYALSGHRSPVTRVIFHPVFSVMVSASEDATIKVWDYETGDFERTLKGHTDSVQDISFDHSGKLLASCSADMTIKLWDFQGFECIRTMHGHDHNVSSVAIMPNGDHIVSASRDKTIKMWEVQTGYCVKTFTGHREWVRMVRPNQDGTLIASCSNDQTVRVWVVATKECKAELREHEHVVECISWAPESSYSSISEATGSETKKSGKPGPFLLSGSRDKTIKMWDVSTGMCLMTLVGHDNWVRGVLFHSGGKFILSCADDKTLRVWDYKNKRCMKTLNAHEHFVTSLDFHKTAPYVVTGSVDQTVKVWECR
Take B3: the binding entry in assay [1] is given as “binds”.

B4: FLAG-tagged LIS1 (Sf9 co-expression) (protein, UniProt P43034 1-410)
chain: MVLSQRQRDELNRAIADYLRSNGYEEAYSVFKKEAELDVNEELDKKYAGLLEKKWTSVIRLQKKVMELESKLNEAKEEFTSGGPLGQKRDPKEWIPRPPEKYALSGHRSPVTRVIFHPVFSVMVSASEDATIKVWDYETGDFERTLKGHTDSVQDISFDHSGKLLASCSADMTIKLWDFQGFECIRTMHGHDHNVSSVAIMPNGDHIVSASRDKTIKMWEVQTGYCVKTFTGHREWVRMVRPNQDGTLIASCSNDQTVRVWVVATKECKAELREHEHVVECISWAPESSYSSISEATGSETKKSGKPGPFLLSGSRDKTIKMWDVSTGMCLMTLVGHDNWVRGVLFHSGGKFILSCADDKTLRVWDYKNKRCMKTLNAHEHFVTSLDFHKTAPYVVTGSVDQTVKVWECR
Consider B4, for which the binding entry in assay [2] was “binds”.

For the origin of these results see publication doi:10.1101/2022.10.14.512051.
